Consider one compound from PubChem BioAssay (EPA / NIEHS).

By UniProt entry, the sequences of proteins in these tests, tags left out. Where a name states a change or a piece, a line headed by the entry shows the natural chain unless it says otherwise.
UniProt Q96RI1: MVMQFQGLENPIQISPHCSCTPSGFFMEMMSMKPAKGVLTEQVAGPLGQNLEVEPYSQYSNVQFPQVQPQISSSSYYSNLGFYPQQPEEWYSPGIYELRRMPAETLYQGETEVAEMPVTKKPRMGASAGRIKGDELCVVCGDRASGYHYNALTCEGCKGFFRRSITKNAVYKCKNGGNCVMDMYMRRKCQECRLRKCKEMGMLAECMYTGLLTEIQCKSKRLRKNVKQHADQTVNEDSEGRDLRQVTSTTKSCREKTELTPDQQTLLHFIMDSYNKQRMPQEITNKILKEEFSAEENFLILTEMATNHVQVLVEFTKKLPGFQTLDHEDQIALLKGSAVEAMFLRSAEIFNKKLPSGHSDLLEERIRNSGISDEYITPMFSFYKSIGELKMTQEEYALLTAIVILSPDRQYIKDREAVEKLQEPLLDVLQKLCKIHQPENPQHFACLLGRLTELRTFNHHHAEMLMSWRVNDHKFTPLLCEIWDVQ
UniProt Q16656: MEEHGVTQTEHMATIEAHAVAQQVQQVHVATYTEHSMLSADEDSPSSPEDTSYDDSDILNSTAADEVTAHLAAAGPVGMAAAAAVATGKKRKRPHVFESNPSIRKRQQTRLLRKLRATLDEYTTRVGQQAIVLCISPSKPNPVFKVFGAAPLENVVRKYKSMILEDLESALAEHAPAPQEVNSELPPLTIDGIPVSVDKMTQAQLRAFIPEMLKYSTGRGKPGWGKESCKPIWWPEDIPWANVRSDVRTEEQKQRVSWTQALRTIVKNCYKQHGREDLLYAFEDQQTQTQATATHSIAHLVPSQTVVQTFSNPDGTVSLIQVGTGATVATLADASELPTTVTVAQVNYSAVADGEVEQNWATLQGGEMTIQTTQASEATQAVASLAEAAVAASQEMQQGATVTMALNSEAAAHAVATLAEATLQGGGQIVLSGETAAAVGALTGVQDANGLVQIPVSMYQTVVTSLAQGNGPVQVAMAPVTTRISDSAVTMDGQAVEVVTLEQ
UniProt P11511: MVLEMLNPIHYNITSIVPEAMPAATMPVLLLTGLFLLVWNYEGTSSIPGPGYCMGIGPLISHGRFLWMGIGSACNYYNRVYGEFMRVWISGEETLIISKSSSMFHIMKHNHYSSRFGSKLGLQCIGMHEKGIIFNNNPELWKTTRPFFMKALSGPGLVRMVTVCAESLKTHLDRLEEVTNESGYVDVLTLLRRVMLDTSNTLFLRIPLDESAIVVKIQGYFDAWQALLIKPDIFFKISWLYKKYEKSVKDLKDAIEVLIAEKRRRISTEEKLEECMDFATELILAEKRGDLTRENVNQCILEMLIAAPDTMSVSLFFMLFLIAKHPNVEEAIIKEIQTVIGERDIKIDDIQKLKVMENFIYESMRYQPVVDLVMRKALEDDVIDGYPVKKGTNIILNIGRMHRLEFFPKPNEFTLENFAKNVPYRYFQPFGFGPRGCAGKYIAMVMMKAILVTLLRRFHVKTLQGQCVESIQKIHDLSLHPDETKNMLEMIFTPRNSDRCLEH
UniProt P04798: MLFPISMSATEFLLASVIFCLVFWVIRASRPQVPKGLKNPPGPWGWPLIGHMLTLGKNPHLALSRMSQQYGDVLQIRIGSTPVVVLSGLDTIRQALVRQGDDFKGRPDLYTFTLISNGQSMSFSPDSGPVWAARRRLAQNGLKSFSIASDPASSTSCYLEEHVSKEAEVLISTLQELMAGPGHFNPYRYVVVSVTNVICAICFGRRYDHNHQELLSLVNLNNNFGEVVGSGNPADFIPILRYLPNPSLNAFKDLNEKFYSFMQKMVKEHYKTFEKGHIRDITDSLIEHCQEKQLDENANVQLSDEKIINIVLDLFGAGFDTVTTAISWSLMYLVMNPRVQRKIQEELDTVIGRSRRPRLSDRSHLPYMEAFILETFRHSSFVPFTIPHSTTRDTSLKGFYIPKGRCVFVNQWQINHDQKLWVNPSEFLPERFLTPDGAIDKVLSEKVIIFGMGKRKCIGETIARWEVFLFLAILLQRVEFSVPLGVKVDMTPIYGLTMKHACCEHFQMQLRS
UniProt P08588, whole entry, looked up: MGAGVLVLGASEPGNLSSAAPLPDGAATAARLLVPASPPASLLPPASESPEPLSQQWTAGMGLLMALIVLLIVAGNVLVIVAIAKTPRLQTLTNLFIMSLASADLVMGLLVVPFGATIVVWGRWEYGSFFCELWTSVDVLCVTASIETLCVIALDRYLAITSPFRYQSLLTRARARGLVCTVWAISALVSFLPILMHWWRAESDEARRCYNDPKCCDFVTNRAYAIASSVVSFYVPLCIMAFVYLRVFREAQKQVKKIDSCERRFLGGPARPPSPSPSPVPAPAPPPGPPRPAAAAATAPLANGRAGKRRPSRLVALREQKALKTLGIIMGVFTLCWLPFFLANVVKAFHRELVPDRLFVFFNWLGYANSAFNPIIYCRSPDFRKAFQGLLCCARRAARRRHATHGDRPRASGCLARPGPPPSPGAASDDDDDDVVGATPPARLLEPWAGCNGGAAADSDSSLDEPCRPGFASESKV
UniProt O97775: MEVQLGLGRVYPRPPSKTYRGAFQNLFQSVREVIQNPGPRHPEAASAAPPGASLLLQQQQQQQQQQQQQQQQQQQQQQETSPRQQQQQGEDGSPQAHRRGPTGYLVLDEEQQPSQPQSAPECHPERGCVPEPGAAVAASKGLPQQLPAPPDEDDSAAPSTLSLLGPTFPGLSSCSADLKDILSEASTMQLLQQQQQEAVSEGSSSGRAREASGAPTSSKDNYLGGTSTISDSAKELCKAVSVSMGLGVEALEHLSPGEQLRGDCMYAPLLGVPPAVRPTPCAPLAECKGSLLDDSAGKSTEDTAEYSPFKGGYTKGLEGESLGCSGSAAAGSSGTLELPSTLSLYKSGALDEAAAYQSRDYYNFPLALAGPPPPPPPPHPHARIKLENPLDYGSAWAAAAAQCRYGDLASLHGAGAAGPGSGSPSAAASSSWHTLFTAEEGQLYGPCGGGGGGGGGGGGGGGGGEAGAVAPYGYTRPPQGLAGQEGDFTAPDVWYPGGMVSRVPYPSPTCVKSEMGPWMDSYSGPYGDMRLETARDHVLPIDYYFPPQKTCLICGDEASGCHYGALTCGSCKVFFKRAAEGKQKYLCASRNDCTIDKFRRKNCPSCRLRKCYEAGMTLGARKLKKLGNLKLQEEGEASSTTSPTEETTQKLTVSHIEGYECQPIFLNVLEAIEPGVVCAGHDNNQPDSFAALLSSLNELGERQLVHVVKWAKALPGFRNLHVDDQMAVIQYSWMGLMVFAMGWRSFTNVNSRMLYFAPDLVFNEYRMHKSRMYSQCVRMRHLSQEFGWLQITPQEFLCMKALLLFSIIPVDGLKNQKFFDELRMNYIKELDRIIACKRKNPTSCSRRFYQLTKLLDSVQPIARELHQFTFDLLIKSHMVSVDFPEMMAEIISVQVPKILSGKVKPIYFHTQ
UniProt Q60492, whole entry, looked up: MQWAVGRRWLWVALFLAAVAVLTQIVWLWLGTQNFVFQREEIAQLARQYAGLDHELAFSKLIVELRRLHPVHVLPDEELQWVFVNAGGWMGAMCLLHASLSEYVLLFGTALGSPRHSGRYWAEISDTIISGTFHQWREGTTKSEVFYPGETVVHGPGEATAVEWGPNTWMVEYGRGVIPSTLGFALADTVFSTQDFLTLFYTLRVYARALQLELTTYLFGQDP

Test [1] in a line: APR_HepG2_CellCycleArrest_24hr: Apredica 24-hour HepG2 Assay for Cell Cycle Arrest (AID 2282905).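 Note: cell cycle arrest scored as ratio of 2N to 4N nuclear DNA content.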 Conditions: imaging, actives raise or lower the signal. A digest of the protocol:
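Compounds (0.39 to 200 uM, final DMSO 0.5% v/v) are applied to HepG2 cells for 24 hours; cells are then fixed, permeabilized and nuclei labeled with Hoechst 33342. Automated imaging measures DNA content, and activity is fitted in both directions against DMSO.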

Test [2] can be described thus: APR_HepG2_NuclearSize_24hr: Apredica 24-hour HepG2 Assay for Nuclear Size (AID 2282907). The following applies: high-content imaging, actives raise or lower the signal. The gist of the method: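 Nuclear size is measured by fluorescence high-content imaging of Hoechst-labelled HepG2 nuclei after 24 hr of treatment (0.39–200 uM, 0.5% DMSO). Cells are fixed in 3.7% formaldehyde before staining, and DMSO serves as the baseline for bidirectional curve fitting.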

A short description of test [3]: APR_HepG2_MicrotubuleCSK_24hr: Apredica 24-hour HepG2 Assay for Microtubule CSK Stabilty (AID 2282909). Conditions: HepG2 microtubule cytoskeleton imaging, actives raise or lower the signal. The gist of the method:
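Compounds were applied to HepG2 cells for 24 hours across 0.39–200 uM in duplicate, with final DMSO at 0.5% v/v. Fixed, permeabilized cells were labeled for alpha-tubulin and nuclei, and tubulin fluorescence was quantified by imaging, fitted bidirectionally against DMSO.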

A short description of test [4]: APR_HepG2_CellCycleArrest_72hr: Apredica 72-hour HepG2 Assay for Cell Cycle Arrest (AID 2282914). Conditions: high-content imaging, actives raise or lower the signal. The gist of the method:
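Read-out is Hoechst-stained nuclear DNA content measured by automated fluorescence imaging (20x, six images per well), fitted in both directions relative to DMSO. Human HepG2 liver cells received 0.39–200 uM compound for 72 hr at 0.5% v/v DMSO.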

The nature of test [5]: APR_HepG2_MicrotubuleCSK_72hr: Apredica 72-hour HepG2 Assay for Microtubule CSK Stabilty (AID 2282919). The following applies: HepG2 microtubule cytoskeleton, high-content imaging, actives raise or lower the signal. A digest of the protocol: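 Ten-point dosing (0.39–200 uM, 0.5% DMSO) of HepG2 for 72 hr, with taxol as the cytoskeletal positive control. The cells were formaldehyde-fixed and then stained with alpha-tubulin/Cy5 and Hoechst. Imaging at 20x used a −2 um Z offset for tubulin.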

Test [6] is described as follows: APR_HepG2_NuclearSize_72hr: Apredica 72-hour HepG2 Assay for Nuclear Size (AID 2282925). Conditions: high-content imaging, actives raise or lower the signal. A digest of the protocol:
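Compounds (0.39–200 uM, final DMSO 0.5%) were applied to HepG2 for 72 hr. Cells were then formaldehyde-fixed, permeabilized and labelled with Hoechst 33342. Nuclear diameter was quantified from six images per well.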

Test [7] addresses Bile acid receptor (Homo sapiens) (UniProt Q96RI1). Kind of test: ATG_IR1_CIS: Attagene CIS-FACTORIAL HepG2 Assay for human Nuclear Receptor Subfamily 1 Group H Member 4 (NR1H4), IR1 submotif (AID 2282946). Conditions: IR1 reporter transcription, actives raise or lower the signal. A digest of the protocol:
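Readout: reporter transcript levels by RT-PCR with fluorescent capillary electrophoresis, from HepG2 cells transiently transfected with multiplexed cis-regulated reporters and dosed 24 h. Gain- or loss-of-signal fitted versus DMSO negative control.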

The target of test [8] is Nuclear respiratory factor 1 (Homo sapiens) (UniProt Q16656). Kind of test: ATG_NRF1_CIS: Attagene CIS-FACTORIAL HepG2 Assay for human Nuclear Respiratory Factor 1 (NRF1) Orphan Gene (AID 2282987). The following applies: HepG2 NRF1 cis-element reporter, Attagene multiplex; actives raise or lower the signal. The gist of the method: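 Fluorescence intensity of labelled reporter cDNA fragments, resolved by capillary electrophoresis, served as readout for NRF1 cis-element activity. Transiently transfected HepG2 cells were dosed for 24 hours; activity in either direction was fitted against DMSO negative control.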

The nature of test [9]: ATG_NFI_CIS: Attagene CIS-FACTORIAL HepG2 Assay for human Nuclear Factor I (NFI) (AID 2282989). Conditions: HepG2 cis-regulatory reporter, NFI response element transcription; actives raise or lower the signal. The gist of the method:
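Cells: human liver HepG2, transiently transfected with promoter-regulated reporter transcription units. Exposure 24 h. Detection: fluorescent RT-PCR products separated by capillary electrophoresis, normalised to DMSO negative control.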

Test [10] in a line: ATG_NF_kB_CIS: Attagene CIS-FACTORIAL HepG2 Assay for human Nuclear Factor Kappa B (NF-kB) (AID 2282991). The following applies: HepG2 Attagene cis-factorial NF-kB reporter mRNA; actives raise or lower the signal. A digest of the protocol: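 Endogenous transcription factor activity in HepG2 was captured via cis-regulated reporter constructs; after 24 h dosing, reporter mRNA was reverse-transcribed, amplified, fluorescently labelled and sized by capillary electrophoresis, with activity fitted bidirectionally relative to DMSO.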

In test [11] the target is human CYP19A1, CYP19A1 (gene 1588) (UniProt P11511). Briefly: NVS_ADME_hCYP19A1: NovaScreen (NVS) CYP450-related Enzyme Activity (ADME) Assay for human CYP19A1 (AID 2283098; active = hit-call score of the fitted dose curve at least 0.9, where 1 is the maximum). The gist of the method:
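Compounds were first screened at 10 uM in duplicate against purified enzyme, with a fluorogenic substrate and fluorescence intensity detection after 0.5 h. Inhibition appears as reduced signal against acetonitrile control.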

Test [12] concerns the target human CYP1A1, CYP1A1 (gene 1543) (UniProt P04798). Kind of test: NVS_ADME_hCYP1A1: NovaScreen (NVS) CYP450-related Enzyme Activity (ADME) Assay for human CYP1A1 (AID 2283100; active = hit-call score of the fitted dose curve at least 0.9, where 1 is the maximum). The gist of the method: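 Recombinant hCYP1A1 + fluorogenic substrate, cell-free; 1 h; fluorescence read. Single-point 10 uM (duplicate) → concentration series, max 20 uM. Acetonitrile negative control.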

Test [13] has as its target human Adrenergic, Beta 1 Receptor (Adrb1), ADRB1 (gene 153) (UniProt P08588). Kind of test: NVS_GPCR_hAdrb1: NovaScreen (NVS) G Protein-Coupled Receptor Assay for human Adrenergic, Beta 1 Receptor (Adrb1) (AID 2283258; active = hit-call score of the fitted dose curve at least 0.9, where 1 is the maximum). The gist of the method: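 Membranes/protein extracted from human neuroepithelioma cells, radioligand competition binding read by filtration and scintillation 2 h post-dose. Single 25 uM duplicate screen, then concentration-response follow-up; DMSO as negative control.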

In test [14] the test system is 5-hydroxytryptamine receptor 2C (pig). Briefly: NVS_GPCR_p5HT2C: NovaScreen (NVS) G Protein-Coupled Receptor Assay for pig Serotonin, 5-Hydroxytryptamine Receptor 2C (5HT2C) (AID 2283288; active = hit-call score of the fitted dose curve at least 0.9, where 1 is the maximum). As for the experimental part:
NVS_GPCR_p5HT2C is a biochemical, single-readout assay that uses extracted gene-proteins from Pig choroid plexus membranes in a tissue-based cell-free assay. Measurements were taken 1 hour after chemical dosing in a 48-well plate.NVS_GPCR_p5HT2C is one of one assay component(s) measured or calculated from the NVS_GPCR_p5HT2C assay. It is designed to make measurements of radioligand binding, a form of binding reporter, as detected with scintillation counting signals by Filter-based radiodetection technology.Data from the assay component NVS_GPCR_p5HT2C was analyzed into 1 assay endpoint. This assay endpoint, NVS_GPCR_p5HT2C, was analyzed in the positive analysis fitting direction relative to DMSO as the negative control and baseline of activity. Using a type of binding reporter, loss-of-signal activity can be used to understand changes in the binding as they relate to the gene HTR2C. Furthermore, this assay endpoint can be referred to as a primary readout, because the performed assay has only produced 1 assay endpoint. To generalize the intended target to other relatable targets, this assay endpoint is annotated to the gpcr intended target family, where the subfamily is rhodopsin-like receptor. […]

Test [15] addresses chimpanzee Androgen Receptor (AR), AR (gene 747460) (UniProt O97775). Briefly: NVS_NR_cAR: NovaScreen (NVS) Nuclear Receptor Binding Assay for chimpanzee Androgen Receptor (AR) (AID 2283346; active = hit-call score of the fitted dose curve at least 0.9, where 1 is the maximum;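 note: radioligand displacement from AR measured by scintillation counting in a cell-free assay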). A digest of the protocol:
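Cell-free radioligand displacement using receptor protein extracted from Sf9/Sf21 cells; bound radioligand measured by scintillation counting 72 hours after chemical dosing. Loss of signal versus DMSO baseline indicates binding; primary screen single-concentration in duplicate at 25 uM, actives followed in concentration series.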

Test [16] deals with Bile acid receptor (Homo sapiens) (UniProt Q96RI1). Kind of test: NVS_NR_hFXR_Antagonist: NovaScreen (NVS) Nuclear Receptor Binding Assay for human Farnesoid X Receptor Antagonism (FXR) (AID 2283350; active = hit-call score of the fitted dose curve at least 0.9, where 1 is the maximum). A digest of the protocol:
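Antagonist-format time-resolved FRET binding assay with extracted human receptor protein, read 1 hour after compound addition. Compounds first screened at 25 uM in duplicate, then actives tested in concentration series, with loss of signal relative to DMSO.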

Test [17] addresses guinea pig Sigma Receptor, Non-selective Binding, SIGMAR1 (gene 100135589) (UniProt Q60492). Kind of test: NVS_OR_gSIGMA_NonSelective: NovaScreen (NVS) Nuclear Receptor Binding Assay for guinea pig Sigma Receptor, Non-selective Binding (AID 2283367; active = hit-call score of the fitted dose curve at least 0.9, where 1 is the maximum). As for the experimental part:
NVS_OR_gSIGMA_NonSelective is a biochemical, single-readout assay that uses extracted gene-proteins from Guinea pig brain membranes in a tissue-based cell-free assay. Measurements were taken 1 hour after chemical dosing in a 48-well plate.NVS_OR_gSIGMA_NonSelective is one of one assay component(s) measured or calculated from the NVS_OR_gSIGMA_NonSelective assay. It is designed to make measurements of radioligand binding, a form of binding reporter, as detected with scintillation counting signals by Filter-based radiodetection technology.Data from the assay component NVS_OR_gSIGMA_NonSelective was analyzed into 1 assay endpoint. This assay endpoint, NVS_OR_gSIGMA_NonSelective, was analyzed in the positive analysis fitting direction relative to DMSO as the negative control and baseline of activity. Using a type of binding reporter, loss-of-signal activity can be used to understand changes in the binding as they relate to the gene Sigmar1. Furthermore, this assay endpoint can be referred to as a primary readout, because the performed assay has only produced 1 assay endpoint. To generalize the intended target to other relatable targets, this assay endpoint is annotated to the misc protein intended target family, where the subfamily is chaperone. […]

For some assays here: What follows is the remainder of the data, with few or none of the hits. Results filed as inconclusive are left out. The list shows a part of the results, in another mix than the full data. Active and inactive are the calls of the source. Rule for the calls, unless noted: active = hit-call score of the fitted dose curve at least 0.9, where 1 is the maximum; inactive = score below 0.9.

For `CCCCc1oc2ccccc2c1C(=O)c1cc(I)c(OCCN(CC)CC)c(I)c1`, the compound was called inactive in test [1], in [2], in [3], in [4], in test [5] and in test [6]. In addition, the result in test [10], in [11], in test [12] and in test [16] was inactive. In addition, the concentration at half-maximal activity (AC50) in test [7] was active: 66.8 µM; in test [8] it was active: 35.3 µM; in test [9], active: 139 µM; in test [13] it was active: 7.74 µM; in test [14], active: 18.9 µM; in test [15], active: 18.9 µM. The AC50 in [17] was active: 0.402 µM.

What is called AC50 is the concentration giving half of the maximal activity seen.
